PubChem BioAssay AID1159584 – Peter MacCallum Cancer Centre – 2016

Purpose: 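Genes that CDH1-null MCF10A cells selectively depend on to survive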 (primary screen)
Cell system: human MCF10A breast epithelial cells, parental and CDH1-null
Reagent: siRNA against human genes
Measured: 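Cell viability by CellTiter-Glo ATP luminescence, each line scaled to the mean of mock wells across plates, then CDH1-null over parental ratio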
Reading the numbers: CDH1-null / parental viability ratio: higher = CDH1-null cells survive relatively better than parental; CDH1-null viability vs mock: higher = more viable CDH1-null cells; parental viability vs mock: higher = more viable parental cells
Shown is a random part of about 18,000 reagents. No sequences are given here. Not stated in the record: the amount of reagent, the time to read-out.

| target gene | PubChem SID | CDH1-null / parental viability ratio | CDH1-null viability vs mock (fraction of mock) | parental viability vs mock (fraction of mock) |
| --- | --- | --- | --- | --- |
| SLC2A4 | SID152148512 | 0.9 | 0.98 | 1.09 |
| GNRH1 (gonadotropin releasing hormone 1) | SID152150624 | 0.88 | 0.73 | 0.83 |
| RABL3 (RAB, member of RAS oncogene family like 3) | SID135623458 | 1.05 | 0.98 | 0.93 |
| OR13C9 (olfactory receptor family 13 subfamily C member 9) | SID152153355 | 1.03 | 0.64 | 0.62 |
| TTC5 (tetratricopeptide repeat domain 5) | SID134319573 | 1 | 0.6 | 0.6 |
| MYL11 (myosin light chain 11) | SID135623428 | 1.56 | 0.61 | 0.39 |
| SPAG5 (sperm associated antigen 5) | SID134312001 | 1.07 | 0.64 | 0.6 |
| TLX1 (T cell leukemia homeobox 1) | SID134310173 | 1.16 | 1.14 | 0.98 |
| DGKE (diacylglycerol kinase epsilon) | SID56479247 | 0.87 | 0.78 | 0.9 |
| GLRA4 (glycine receptor alpha 4 (pseudogene)) | SID135625343 | 1.33 | 1.17 | 0.88 |
| CENPF (centromere protein F) | SID152150064 | 1.07 | 0.86 | 0.8 |
| SLC39A4 | SID152152174 | 1.02 | 0.95 | 0.93 |
| SPTY2D1 (SPT2 chromatin protein domain containing 1) | SID152153491 | 0.81 | 0.65 | 0.8 |
| CAMK2N1 (calcium/calmodulin dependent protein kinase II inhibitor 1) | SID152156102 | 0.82 | 0.66 | 0.8 |
| ARSL (arylsulfatase L) | SID152151878 | 0.98 | 0.92 | 0.94 |
| SFRP5 (secreted frizzled related protein 5) | SID134315731 | 0.95 | 0.72 | 0.76 |
| C5orf22 (chromosome 5 open reading frame 22) | SID134324826 | 0.64 | 0.56 | 0.87 |
| ITGB8 (integrin subunit beta 8) | SID152149430 | 0.52 | 0.3 | 0.58 |
| ALDH5A1 (aldehyde dehydrogenase 5 family member A1) | SID152156598 | 1.37 | 0.96 | 0.7 |
| ZNF518A (zinc finger protein 518A) | SID135625189 | 0.82 | 0.56 | 0.68 |
| ITPRIP (inositol 1,4,5-trisphosphate receptor interacting protein) | SID135622887 | 1.15 | 1.15 | 1 |
| SLC6A1 | SID135621417 | 0.9 | 0.77 | 0.86 |
| ARAF (A-Raf proto-oncogene, serine/threonine kinase) | SID152151166 | 0.95 | 0.94 | 0.99 |
| CCAR1 (cell division cycle and apoptosis regulator 1) | SID134318031 | 1.04 | 0.8 | 0.77 |
| TAS2R3 (taste 2 receptor member 3) | SID152150954 | 1.2 | 1.09 | 0.91 |
| POM121L2 (POM121 transmembrane nucleoporin like 2) | SID135625211 | 1 | 0.57 | 0.57 |
| SLC47A1 | SID134317576 | 1.01 | 0.7 | 0.69 |
| TNFSF13B (TNF superfamily member 13b) | SID134321515 | 1.26 | 0.72 | 0.57 |
| ULBP3 (UL16 binding protein 3) | SID134318514 | 1.48 | 0.98 | 0.66 |
| F8A2 (coagulation factor VIII associated 2) | SID135625370 | 0.85 | 0.56 | 0.66 |
| PIGG | SID134321976 | 1.13 | 1.08 | 0.96 |
| NCK2 (NCK adaptor protein 2) | SID135623769 | 0.98 | 0.8 | 0.82 |
| SOWAHB (sosondowah ankyrin repeat domain family member B) | SID135624425 | 1.04 | 0.59 | 0.57 |
| TTC29 (tetratricopeptide repeat domain 29) | SID152149319 | 0.98 | 1.02 | 1.04 |
| SPINK4 (serine peptidase inhibitor Kazal type 4) | SID134323964 | 1.18 | 0.97 | 0.82 |
| OPALIN (oligodendrocytic myelin paranodal and inner loop protein) | SID135622882 | 0.93 | 0.68 | 0.73 |
| ITPR3 (inositol 1,4,5-trisphosphate receptor type 3) | SID152154522 | 1.17 | 0.84 | 0.72 |
| BBS4 (Bardet-Biedl syndrome 4) | SID134317865 | 0.96 | 0.92 | 0.96 |
| PIGS (phosphatidylinositol glycan anchor biosynthesis class S) | SID134317914 | 0.85 | 0.85 | 1 |
| SUPV3L1 (Suv3 like RNA helicase) | SID152152339 | 1.17 | 1.01 | 0.86 |
| MNMIP1 (manchette microtubule inner protein 1) | SID152151261 | 0.9 | 1.02 | 1.13 |
| ECT2L (epithelial cell transforming 2 like) | SID152153171 | 0.95 | 0.61 | 0.64 |
| SDF2 (stromal cell derived factor 2) | SID134317727 | 0.98 | 0.5 | 0.51 |
| SAR1A (secretion associated Ras related GTPase 1A) | SID135623201 | 1 | 1.15 | 1.15 |
| GLYATL1 (glycine-N-acyltransferase like 1) | SID135621913 | 1.04 | 0.99 | 0.95 |
| COL4A4 (collagen type IV alpha 4 chain) | SID152155916 | 1.01 | 0.86 | 0.85 |
| NOL9 (nucleolar protein 9) | SID135623740 | 1.09 | 0.76 | 0.7 |
| PSG9 (pregnancy specific beta-1-glycoprotein 9) | SID152154515 | 1.04 | 0.94 | 0.9 |
| AP1G1 (adaptor related protein complex 1 subunit gamma 1) | SID135623694 | 1.22 | 0.94 | 0.77 |
| TIMCC (TIM double twin CX3C motif chaperone) | SID134319074 | 0.8 | 0.56 | 0.7 |
| SLC71A1 | SID134319120 | 1.11 | 1.15 | 1.04 |
| PRAMEF10 (PRAME family member 10) | SID135624229 | 1.09 | 1.09 | 1 |
| ENO2 (enolase 2) | SID152147473 | 0.95 | 1 | 1.05 |
| UTP11 (UTP11 small subunit processome component) | SID152147599 | 1.42 | 0.74 | 0.52 |
| PRICKLE1 (prickle planar cell polarity protein 1) | SID134320658 | 1 | 0.94 | 0.94 |
| FAT1 (FAT atypical cadherin 1) | SID152156398 | 0.88 | 0.66 | 0.75 |
| SLC35B4 | SID152149155 | 0.97 | 0.38 | 0.39 |
| MCCD1 (mitochondrial coiled-coil domain 1) | SID152152019 | 1.15 | 1 | 0.87 |
| TUBB (tubulin beta class I) | SID135621922 | 0.97 | 0.74 | 0.76 |
| OR7E85BP | SID135625526 | 0.87 | 0.2 | 0.23 |
| TGM6 (transglutaminase 6) | SID152151288 | 1.18 | 1.04 | 0.88 |
| ZNF134 (zinc finger protein 134) | SID152152284 | 0.77 | 0.58 | 0.75 |
| KCNC2 (potassium voltage-gated channel subfamily C member 2) | SID134311639 | 1.14 | 1.06 | 0.93 |
| COXFA4 (cytochrome c oxidase associated subunit FA4) | SID134323007 | 0.95 | 0.84 | 0.88 |
| A2ML1 (alpha-2-macroglobulin like 1) | SID152149048 | 0.69 | 0.98 | 1.43 |
| CLCN4 (Cl-/H+ antiporter 4) | SID135621153 | 1.13 | 0.88 | 0.78 |
| SUPT4H1 (SPT4 homolog, DSIF elongation factor subunit) | SID134316864 | 0.88 | 0.6 | 0.68 |
| GPR153 (G protein-coupled receptor 153) | SID135624678 | 0.76 | 0.55 | 0.72 |

An excerpt from above, limited to “parental viability vs mock (fraction of mock)”.
ITPR3 (inositol 1,4,5-trisphosphate receptor type 3) [SID152154522] = 0.72
BBS4 (Bardet-Biedl syndrome 4) [SID134317865] = 0.96
PIGS (phosphatidylinositol glycan anchor biosynthesis class S) [SID134317914] = 1
SUPV3L1 (Suv3 like RNA helicase) [SID152152339] = 0.86
